These are yes or no findings as the source states them, for the method shown. Some results given as binding are weak or reduced against the parent protein; the word gives no strength.
T1: Angiopoietin-2 (Ang2) (human, UniProt O15123 19-496, biotin label in Examples 22-24)
T1 construct: also called rhAng2; recombinant Ang2
T1 sequence (looked up): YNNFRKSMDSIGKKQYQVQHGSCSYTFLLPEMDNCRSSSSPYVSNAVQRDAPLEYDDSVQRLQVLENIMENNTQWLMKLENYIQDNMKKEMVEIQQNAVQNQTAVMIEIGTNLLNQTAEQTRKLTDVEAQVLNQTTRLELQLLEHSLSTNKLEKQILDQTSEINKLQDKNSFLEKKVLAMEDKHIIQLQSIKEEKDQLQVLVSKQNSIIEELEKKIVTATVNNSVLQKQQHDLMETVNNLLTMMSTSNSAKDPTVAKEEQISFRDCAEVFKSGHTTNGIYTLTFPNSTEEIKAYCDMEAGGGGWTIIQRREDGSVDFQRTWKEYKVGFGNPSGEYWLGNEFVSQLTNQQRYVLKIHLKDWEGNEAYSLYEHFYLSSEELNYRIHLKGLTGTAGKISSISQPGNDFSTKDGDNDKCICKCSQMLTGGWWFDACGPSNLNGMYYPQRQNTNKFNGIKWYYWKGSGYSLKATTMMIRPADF


target: T1, Angiopoietin-2 (Ang2); experiment: Example 48, method not detailed

Row | binding | Binder
1 | binds | SLNPSVDCYFYPNPAHCY [ANG886]
2 | binds | ADTDCYFYPNPPHCYDIT [ANG890]
3 | binds | SLRDCYFYPNPAHCRNNM [ANG904]
4 | binds | LSILYPSCYFYPNPEHCQ [ANG917]
5 | binds | QWNPHYHCFFYPNPPHCY [ANG909]
6 | binds | LSLELSECYFFPNPPHCY [ANG891]
7 | binds | FSPGEVDCYFYPNPPHCK [ANG889]
8 | binds | YDLLLHDCYVFPNPPHCY [ANG897]
9 | binds | DTLDCYYFPNPPHCYSSQ [ANG907]
10 | binds | ALHDCYFYPNPQHCYQA [ANG887]
11 | binds | ECYFYPNPPDCFYLHQRR [ANG898]
12 | binds | SHFSFKDCYFYPNPAHCY [ANG903]
13 | binds | DCYFYPNPPHCYIEHKPS [ANG902]
14 | binds | SKQDCYFYPNPSHCYLDQ [ANG896]
15 | binds | RLVDCYYYPNPLHCYDRS [ANG913]
16 | binds | MLWDMSGCYFYPNPPHCY [ANG895]
17 | binds | TSLDCYFYPNPPHCYETP [ANG911]
18 | binds | KWARGMECFFYPNPPDCY [ANG912]
19 | binds | THKDCYFFPNPPHCYTKT [ANG914]
20 | binds | FNEECYFYPNPPHCYGEY [ANG884]
21 | binds | LVVTAFDCYFYPNPPYCY [ANG885]
22 | binds | LAFDLSDCYFYPNPPHCS [ANG883]
23 | binds | PRPLVIDCYFFPNPPHCY [ANG901]
24 | binds | APHILQDCYFYPNPRHCY [ANG916]
25 | binds | YGNECYFFPNPPHCYHRD [ANG906]
26 | binds | PLKDCYFYPNPLHCYLVS [ANG915]
27 | binds | DHVECYFYPNPLHCYKDR [ANG899]
28 | binds | AVLEHFDCYFYPNPPHCY [ANG894]
